PubChem BioAssay AID1224826 – NIAID | 2016

Screen: 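Genes that change LPS-induced Tnf promoter activity in mouse macrophages when knocked down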 (primary screen)
System: RAW264.7 G9 macrophages from mouse bearing reporters for p65 (GFP) and the Tnf promoter (mCherry)
Reagent: siRNA pool against mouse genes, 100 nM
Timing: 16 h of LPS stimulation, after 2 days of siRNA transfection
Treatment: bacterial lipopolysaccharide (Salmonella minnesota R595), 10 ng/ml
Detection: 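Imaged Tnf reporter mCherry in nuclei, minus background, normalised per plate to the median and expressed as robust z-scores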
Reading the numbers: Tnf reporter robust z-score: higher = stronger Tnf promoter reporter signal after LPS
Active means: 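Called active when robust z-score is at most -1.3, matching the median of the Tlr4 knock-down control, or over 3; control wells and wells with under 50 cells never active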
Meaning of the calls: active = Tnf reporter clearly lowered or raised; inactive = no clear change in Tnf reporter
The whole screen tested about 17,000 reagents; this is a random part of them. About 1,110 of them (6.6%) count as active. 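Active means lowered or raised reporter signal; replicate intensities are raw and not normalised per plate.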 Entries without a mark were called inactive. Not all columns of the deposit are shown. Reagent sequences are not shown.

{"Target gene": "Pik3r2 (phosphoinositide-3-kinase regulatory subunit 2)", "Tnf reporter robust z-score": 1.75, "fewer than 50 cells in well": "enough cells in well"}
{"Target gene": "Ptpre (protein tyrosine phosphatase receptor type E)", "Tnf reporter robust z-score": -0.05, "fewer than 50 cells in well": "enough cells in well"}
{"Target gene": "Urgcp (upregulator of cell proliferation)", "fewer than 50 cells in well": "fewer than 50 cells per well; well left out of calls"}
{"Target gene": "Rad17 (RAD17 checkpoint clamp loader component)", "Tnf reporter robust z-score": 0.93, "fewer than 50 cells in well": "enough cells in well"}
{"Target gene": "Adgrb3 (adhesion G protein-coupled receptor B3)", "Tnf reporter robust z-score": 0.66, "fewer than 50 cells in well": "enough cells in well"}
{"Target gene": "Tnpo1 (transportin 1)", "Tnf reporter robust z-score": -0.09, "fewer than 50 cells in well": "enough cells in well"}
{"Target gene": "Rtp3 (receptor transporter protein 3)", "fewer than 50 cells in well": "fewer than 50 cells per well; well left out of calls"}
{"Target gene": "Slc25a35", "Tnf reporter robust z-score": -1.06, "fewer than 50 cells in well": "enough cells in well"}
{"Target gene": "Tubb4a (tubulin, beta 4A class IVA)", "Tnf reporter robust z-score": -0.38, "fewer than 50 cells in well": "enough cells in well"}
{"Target gene": "Nlrp4c (NLR family, pyrin domain containing 4C)", "Tnf reporter robust z-score": 0.56, "fewer than 50 cells in well": "enough cells in well"}
{"Target gene": "Efcab14 (EF-hand calcium binding domain 14)", "Tnf reporter robust z-score": 1.46, "fewer than 50 cells in well": "enough cells in well"}
{"Target gene": "Hamp2 (hepcidin antimicrobial peptide 2)", "fewer than 50 cells in well": "fewer than 50 cells per well; well left out of calls"}
{"Target gene": "Rpl4 (ribosomal protein L4)", "fewer than 50 cells in well": "fewer than 50 cells per well; well left out of calls"}
{"Target gene": "Hcn2 (hyperpolarization-activated, cyclic nucleotide-gated K+ 2)", "Tnf reporter robust z-score": 0.48, "fewer than 50 cells in well": "enough cells in well"}
{"Target gene": "Fev (FEV transcription factor, ETS family member)", "Tnf reporter robust z-score": -0.59, "fewer than 50 cells in well": "enough cells in well"}
{"Target gene": "Nkx2-1 (NK2 homeobox 1)", "Tnf reporter robust z-score": 0.04, "fewer than 50 cells in well": "enough cells in well"}
{"Target gene": "Sall1 (spalt like transcription factor 1)", "Tnf reporter robust z-score": -0.16, "fewer than 50 cells in well": "enough cells in well"}
{"Target gene": "Gpx4 (glutathione peroxidase 4)", "Tnf reporter robust z-score": -0.98, "fewer than 50 cells in well": "enough cells in well"}
{"Target gene": "Asgr1 (asialoglycoprotein receptor 1)", "Tnf reporter robust z-score": 2.69, "fewer than 50 cells in well": "enough cells in well"}
{"Target gene": "Gtf3c4 (general transcription factor IIIC, polypeptide 4)", "Tnf reporter robust z-score": -0.53, "fewer than 50 cells in well": "enough cells in well"}
{"Target gene": "Dtl (denticleless E3 ubiquitin protein ligase)", "Tnf reporter robust z-score": -0.09, "fewer than 50 cells in well": "enough cells in well"}

2 consecutive reagents already listed, quoted:
{"Target gene": "Nkx2-1 (NK2 homeobox 1)", "Tnf reporter robust z-score": 0.04, "fewer than 50 cells in well": "enough cells in well"}
{"Target gene": "Sall1 (spalt like transcription factor 1)", "Tnf reporter robust z-score": -0.16, "fewer than 50 cells in well": "enough cells in well"}
